PubChem BioAssay AID504793 | Drosophila RNAi Screening Center – 2011
The screen tested about 23,000 reagents; shown is an unselected part of those with a known target gene and a result. Of all reagents, 62 (0.27%) were called active. 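Calls come from follow-up tests whose scores are not deposited, so confirmed genes may have low counts here; counts are not normalised per plate.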 Raw values are not corrected between plates. Names joined by + are all predicted targets of the reagent.

- Purpose: 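Knock-downs allowing continued mitosis even though DNA is damaged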 (primary screen)
- Cells: Drosophila S2R+ cells
- Reagents: long dsRNA against Drosophila genes, about 0.25 µg dsRNA per well
- Timing: 4 days of dsRNA, then 4 hours of drug before read-out
- Challenge: doxorubicin 0.5 µM for 4 hours to cause double-strand breaks, in cells also given a low, harmless dose of dsRNA against nbs to sensitise the assay
- Measurement: 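Per-well count of mitotic cells stained for phospho-histone H3 after doxorubicin exposure, used as mitotic index; counts are raw and not normalised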
- Reading the numbers: mitotic cells: higher = more cells in mitosis, weaker G2 arrest
- Call rule: 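a call needs confirmation in secondary tests, with other dsRNAs and a check of mitotic timing without damage, not just a high primary count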
- Calls: active = confirmed in follow-up tests; inactive = not confirmed

gene knocked down | amplicon | mitotic cells, replicate 1 | Outcome
CG32369 | DRSC10042 | 4 | inactive
CG32369 | DRSC10834 | 4 | inactive
CG32369 | DRSC23995 | 4 | inactive
CG14022 | DRSC02352 | 3 | inactive
CG14022 | DRSC27400 | 8 | inactive
Usp16-45 (Ubiquitin specific protease 16/45) | DRSC18352 | 6 | inactive
Usp16-45 (Ubiquitin specific protease 16/45) | DRSC26519 | 2 | inactive
lili (lilipod) | DRSC14143 | 6 | inactive
lili (lilipod) | DRSC29667 | 7 | inactive
eas (easily shocked) | DRSC20329 | 7 | inactive
eas (easily shocked) | DRSC29435 | 3 | inactive
CG10340 | DRSC14232 | 3 | inactive
MED19 (Mediator complex subunit 19) | DRSC10516 | 4 | inactive
MED19 (Mediator complex subunit 19) | DRSC23458 | 3 | inactive
ND-B14 (NADH dehydrogenase (ubiquinone) B14 subunit) | DRSC07029 | 3 | inactive
ND-B14 (NADH dehydrogenase (ubiquinone) B14 subunit) | DRSC28660 | 5 | inactive
Lim1 (LIM homeobox 1) | DRSC17752 | 6 | inactive
Elal (Elastin-like) | DRSC16662 | 3 | inactive
Sik3 (Salt-inducible kinase 3) | DRSC06505 | 3 | inactive
Sik3 (Salt-inducible kinase 3) | DRSC06771 | 3 | inactive
Sik3 (Salt-inducible kinase 3) | DRSC29149 | 4 | inactive
Sik3 (Salt-inducible kinase 3) | DRSC29722 | 11 | inactive
MED6 (Mediator complex subunit 6) | DRSC16500 | 8 | inactive
CG30082 | DRSC22945 | 7 | inactive
cort (cortex) | DRSC02148 | 7 | inactive
cort (cortex) | DRSC26829 | 5 | inactive
unc80 (uncoordinated 80) | DRSC15329 | 6 | inactive
Rab23 | DRSC12305 | 8 | inactive
Rab23 | DRSC25339 | 7 | inactive
CG33460 | DRSC05570 | 2 | inactive
CG4849 | DRSC15662 | 10 | inactive
CG4849 | DRSC27175 | 3 | inactive
Femcoat | DRSC18061 | 7 | inactive
Femcoat | DRSC28792 | 4 | inactive
FipoQ (F-box involved in polyQ pathogenesis) | DRSC15413 | 12 | inactive
FipoQ (F-box involved in polyQ pathogenesis) | DRSC24515 | 6 | inactive
Atg4a (Autophagy-related 4a) | DRSC00656 | 4 | inactive
Atg4a (Autophagy-related 4a) | DRSC28580 | 4 | inactive
Cngl (Cyclic nucleotide-gated ion channel-like) | DRSC20318 | 9 | inactive
Cngl (Cyclic nucleotide-gated ion channel-like) | DRSC23577 | 11 | inactive
Ntf-2 (Nuclear transport factor-2) | DRSC20552 | – | inactive
Ntf-2 (Nuclear transport factor-2) | DRSC25597 | 6 | inactive
CG34124 | DRSC00849 | 9 | inactive
fabp + sea | DRSC16114 | 12 | inactive
fabp + sea | DRSC16115 | 4 | inactive

Reformatted: 7 of the entries above.
cort (cortex) [DRSC26829] — mitotic cells, replicate 1 = 5; Outcome = inactive
unc80 (uncoordinated 80) [DRSC15329] — mitotic cells, replicate 1 = 6; Outcome = inactive
Rab23 [DRSC12305] — mitotic cells, replicate 1 = 8; Outcome = inactive
Rab23 [DRSC25339] — mitotic cells, replicate 1 = 7; Outcome = inactive
CG33460 [DRSC05570] — mitotic cells, replicate 1 = 2; Outcome = inactive
CG4849 [DRSC15662] — mitotic cells, replicate 1 = 10; Outcome = inactive
CG4849 [DRSC27175] — mitotic cells, replicate 1 = 3; Outcome = inactive
